Experimental data reported in article PMC10163288.
The other results are listed elsewhere or left out.

B1: il10ra_site1_normal_mot_HHH_b2_02337_000000026_0001_38_52_H_._HHH_b1_08573_0001_0000300047_0000001_0 (protein)
chain: SSSDEEEEIEELIERVEELIKEGDLEEARQVLFEAVHLAAKLGDQELLRELWELVRLLFELSSSS
B2: il10ra_site1_normal_mot_HHH_b1_06912_af2_000000235_0001_1_15_H_._HHH_b2_07253_0001_0000300013_0000001_0_af2pred_0001 (protein)
chain: SSSSSAQEEAERLFEEAEELIEEGDRRRVLELIRLILQLAHENNNPEIFRLAEHLVQLIGSSSSS
B3: il10ra_site1_normal_mot_HHH_b2_00800_af2_000000047_0001_1_20_H_._HHH_b2_07930_0001_0000100001_0000001_0 (protein)
chain: SSSSQEEYEFAREAIEELIRLAREGNEEEFRRLAEEVREFLEEANNLSALFAIEHLVRLVLSSSS
B4: il10ra_site1_normal_mot_HHH_b1_01879_000000050_0001_1_18_H_._HHH_b2_01804_0001_0000100006_0000001_0 (protein)
chain: SSSSDLEEEVEKAEERAEELLKRGNKEEAARLLFQIQIKAWRNNNEELARELAEVQIRILKSSSS
B5: il10ra_site1_sap_18_mot_HHH_b2_04646_000000019_0001_1_20_H_._HHH_b2_00027_0001_0000600010_0000001_0_0001 (protein)
chain: SSSSTDELFEEVERAIEEASELWEEGNPEEAEEVLEEALRLARENNNWATVFSLEHALRVASSSS
B6: il10ra_site1_sap_22_mot_HHH_b1_03260_000000175_0001_42_57_H_._HHH_b1_05644_af2_0001_0000100002_0000001_0_0001_af2pred_dldesign_0_af2pred (protein)
chain: SSSSDLIKRAYLLACEAYRLAKEKGDEETVEEIARLLHEISRTGDPALLERLEALYARLLESSSS
B7: il10ra_site1_normal_mot_HHH_b1_05056_000000217_0001_1_20_H_._HHH_b2_06136_0001_0000100001_0000001_0 (protein)
chain: SSSSSSELEELLEEIKELLENGDPEEALRLIWEAVHLAVELDDRETIQELAELLREVYEASSSSS
B8: il10ra_site1_sap_24_mot_HHH_b1_03260_000000175_0001_42_57_H_._HHH_b2_07663_af2_0001_0000500041_0000001_0_0001 (protein)
chain: SSSSSSRELYELSREAMELLRNGDPEEAERVVEEAIELAQEENNWAVLAALEHVLEQIESSSSSS
B9: il10ra_site1_sap_18_mot_HHH_b2_01235_000000294_0001_1_18_H_._HHH_b2_06844_0001_0000100004_0000001_1_0001_af2pred_dldesign_0_af2pred (protein)
chain: SSSSSSSNERQRVEALLYYASLSRSPEAARIALERAVELATALGDEELLARARAALAEISSSSSS
B10: il10ra_site1_sap_21_mot_69d334f8f173c11440ed040fdc4c94a9_0001_1_000000074_0001_19_34_H_._HHH_b1_08371_0001_0000100008_0000001_0_0001 (protein)
chain: SSSSDAAEFLLEQAERAIELAREAGDEELVKHILEMAENLAKQLNDEEVERELKELLEELHSSSS
B11: il10ra_site1_normal_mot_HHH_b1_05937_af2_000000262_0001_20_37_H_._HHH_b2_02616_0001_0000100004_0000001_0 (protein)
chain: SSSSDEEERLEQLLEELERLLEEGDRERFLRVAIEILRLAFELGDEEALQIVWELVQKLNSSSSS
B12: il10ra_site1_sap_27_mot_HHH_b1_04693_000000238_0001_19_36_H_._HHH_b2_01347_0001_0000200014_0000001_1_0001 (protein)
chain: SSSSDEEHQEVIELIMRAARLMIRGNPEEARKLLEEALELAEELNDEELFKLIQLFLEQIRSSSS
B13: il10ra_site1_sap_22_mot_HHH_b1_07563_000000100_0001_1_20_H_._HHH_b1_07925_0001_0000100001_0000001_0_0001 (protein)
chain: SSSSDEEKELVEAALRLVEQAEEWGDPESARFLLEAAKLIAEDANDPELERLVEEVEEKLSSSSS
B14: il10ra_site1_sap_17_mot_HHH_b1_02708_af2_000000019_0001_23_39_H_._9bea83002f54911cbf225d03fb4c55e1_0001_0001_0000200014_0000001_0_0001 (protein)
chain: SSSSDMEESARLDLEAAELAAEEGNEELVRATIRFAEQAARYAGNEELEKEIKELEERFNSSSSS
B15: il10ra_site1_normal_mot_HHH_b1_04771_000000013_0001_40_56_H_._HHH_b1_07968_af2_0001_0000200010_0000001_0 (protein)
chain: SSSSDDESQKAAELSLRAFRLALRGNPEEAEEVLEEAHELAREAGDERLARVIEELLQALSSSSS
B16: il10ra_site1_sap_31_mot_HHH_b1_01513_af2_000000021_0001_1_16_H_._HHH_b2_03304_0001_0000100005_0000001_0_0001 (protein)
chain: SSSSDEELRELYELARELAEAAHEGDKERAREIAEEARELAEELGSRVILFLIRNMLERLSSSSS
B17: il10ra_site1_sap_5_mot_HHH_b2_01447_af2_000000258_0001_1_20_H_._HHH_b2_07514_0001_0000100008_0000001_0_0001 (protein)
chain: SSSSSFAERSVRRLLEAAKDLEDPEYVRMTLRFAKALARANNNEELEREIEKVEKELEELLSSSS
B18: il10ra_site1_normal_mot_HHH_b1_08477_000000091_0001_40_57_H_._HHH_b2_05084_0001_0000800035_0000001_0 (protein)
chain: SSSSDIAEETARFLLEMAERLIEQGNPEYARQALRFALRLARDAGNPELEEEIQKLLEELGSSSS
B19: il10ra_site1_normal_mot_HHH_b1_02397_af2_000000085_0001_39_57_H_._HHH_b2_05327_0001_0000500035_0000002_0 (protein)
chain: SSSSSEEEEELERLLEEIEEAVRRGDPELFARLAQELLRLAFRLSDQEVLQRLHRLIKEATSSSS
B20: il10ra_site1_normal_mot_HHH_b2_00730_000000084_0001_1_16_H_._HHH_b1_03899_0001_0000200017_0000001_0 (protein)
chain: SSSSDNAEQIKRAFEQSFERALEAGDEEYLRLLLHFLRALAEDLNDPELRELVEELEELLRSSSS
B21: il10ra_site1_normal_mot_HHH_b1_02062_000000185_0001_1_20_H_._HHH_b1_07000_0001_0000400028_0000001_0_af2pred_0001 (protein)
chain: SSSSDRHEVLRLSREVNKLYSDGDPEEAQKLVEEALELAREEGNLILLYILESLERRIERSSSSS
B22: il10ra_site1_sap_17_mot_HHH_b1_05370_000000138_0001_1_16_H_._HHH_b1_03156_0001_0000500049_0000001_0_0001 (protein)
chain: SSSSSESQELYRLSREAMELLREGNPEEAQKVVEEAIELAEELNNPAFLYNLRHVLRAIRSSSSS
B23: il10ra_site1_normal_mot_HHH_b1_02997_000000220_0001_39_52_H_._HHH_b2_02758_0001_0000200017_0000001_0_af2pred_0001 (protein)
chain: SSSSSSQEEVLELIREAWEIDDLEEAREVLEEALELAKELGDEQLRELVERLLRQLELLSSSSSS
B24: il10ra_site1_sap_11_mot_HHH_b2_06497_000000202_0001_1_20_H_._HHH_b1_07730_0001_0000300024_0000001_0_0001 (protein)
chain: SSSSDMYEEVKRLIEEIVRLAREGDEERAEELLEELEELAREHNSPVIEFVIELLRRDLENSSSS
B25: il10ra_site1_sap_13_mot_HHH_b2_04680_000000215_0001_1_16_H_._HHH_b2_04522_af2_0001_0000600020_0000002_0_0001_af2pred_0001 (protein)
chain: SSSSSSAEKEASEVYVKAARALQEGDEEEAKELLRQLEEIAEEGNSEKAKLSVKNLRALLSSSSS
B26: il10ra_site1_normal_mot_HHH_b1_00999_000000080_0001_41_55_H_._HHH_b1_02251_0001_0000300042_0000002_0 (protein)
chain: SSSSDEEEERIEELLKEVEELRKEGNEEEAARLLQEAVRLAIELNDEELLREIWELAKKIGSSSS
B27: il10ra_site1_sap_16_mot_HHH_b2_05972_af2_000000208_0001_1_16_H_._HHH_b1_01803_0001_0000100002_0000001_0_0001_af2pred_0001 (protein)
chain: SSSSEQELMRFAARVVLELYEKLGLSREDFEELLELALRLVQEGFSEEEIREILEEVAKELSSSS
B28: il10ra_site1_normal_mot_HHH_b1_06363_000000103_0001_21_38_H_._HHH_b2_01051_0001_0000100003_0000002_0_af2pred_0001 (protein)
chain: SSSSSDEHRERVEELLEEAKEIDDDKERWQVLIEAYLIAYRNNDEELREEVREVAVRLVDSSSSS
B29: il10ra_site1_normal_mot_HHH_b2_07144_000000289_0001_1_18_H_._HHH_b2_05014_0001_0000100007_0000001_0 (protein)
chain: SSSSDAQELYELSREAAELRRNGNPEEAQKVVEEAEELARELNNFAILFAIRHLRRDIEKSSSSS
B30: il10ra_site1_sap_16_mot_HHH_b1_06788_af2_000000238_0001_19_36_H_._HHH_b1_08627_af2_0001_0000300018_0000001_0_0001 (protein)
chain: SSSSNEELEEIMELLRRAVELDHDGNPEEARKLLEEAEELAEEANNLLLRWQIEWVLKMLNSSSS
B31: il10ra_site1_normal_mot_HHH_b2_02933_000000199_0001_1_19_H_._HHH_b1_08288_0001_0000100004_0000002_0 (protein)
chain: SSSSSEEIWELLRRLIEAIREGDEELARELIEEIRRLIEEAGNDNFRFQLEFAEEVAERELSSSS
B32: il10ra_site1_sap_19_mot_HHH_b1_01011_000000096_0001_1_19_H_._HHH_b1_07527_0001_0000100007_0000002_0_0001_af2pred_0001 (protein)
chain: SSSSSVEEEVRELFEEAQEVLEEGDLKRAIELSRRLLELAAEHNDEEAAKLARELVKLLGSSSSS
B33: il10ra_site1_normal_mot_ems_p1-16H-GBL-16H-GABBL-16H_0429_0001_0001_0001_000000085_0001_1_17_H_._HHH_b1_02122_0001_0000200028_0000001_0 (protein)
chain: SSSSSDAEEIFELIRRILELIDDGDEEEARELLEELRELIEKAGNFVFEFSLRVLERELNSSSSS
B34: il10ra_site1_normal_mot_HHH_b1_02397_af2_000000085_0001_39_57_H_._HHH_b2_06026_0001_0000400018_0000001_0 (protein)
chain: SSSDEEEKEVEELAEEARRLAEEGNPEEAARLLQEALRFAFRLRNAELLQLLWRVAKELAKSSSS
B35: il10ra_site1_normal_mot_d2735b3c0fe9b97dc03c9ec5d23a03fd_0001_1_af2_000000071_0001_17_32_H_._HHH_b1_04565_af2_0001_0000200013_0000002_0_af2pred_dldesign_0_af2pr … (protein)
chain: SSSSSSNERQRIRAILYYARLSSNPDAAKKALEYAIELAKKINDEELLAEAQAELEKLKSSSSSS
B36: il10ra_site1_sap_17_mot_e1dd4851c59bc1cdde016f988f6856bd_0001_1_000000200_0001_16_31_H_._HHH_b1_00930_af2_0001_0000800027_0000001_0_0001 (protein)
chain: SQLIERSLKWALERGDEEVAKAAVEALLRQQGVPPEEIEKILEEFEELLKKDPEEAVRFVVELLE
B37: il10ra_site1_sap_22_mot_HHH_b1_03900_000000129_0001_1_16_H_._HHH_b1_07741_0001_0000100003_0000002_0_0001_af2pred_dldesign_0_af2pred (protein)
chain: SSSSSDLEALYARALELLDAGRIDEALELLRELSRIALEKKDPEAIKLALELAKRLDEKASSSSS

Target: il10ra, Q13651
Test: yeast display titration

Binder	apparent Kd
B1	inactive: no binding seen
B2	inactive: no binding seen
B3	inactive: no binding seen
B4	inactive: no binding seen
B5	inactive: no binding seen
B6	inactive: no binding seen
B7	inactive: no binding seen
B8	inactive: no binding seen
B9	inactive: no binding seen
B10	inactive: no binding seen
B11	inactive: no binding seen
B12	inactive: no binding seen
B13	inactive: no binding seen
B14	inactive: no binding seen
B15	inactive: no binding seen
B16	inactive: no binding seen
B17	inactive: no binding seen
B18	inactive: no binding seen
B19	inactive: no binding seen

Binder	apparent Kd
B20	inactive: no binding seen
B21	inactive: no binding seen
B22	inactive: no binding seen
B23	inactive: no binding seen
B24	inactive: no binding seen
B25	inactive: no binding seen
B26	inactive: no binding seen
B27	inactive: no binding seen
B28	inactive: no binding seen
B29	inactive: > 291 nM
B30	inactive: no binding seen
B31	inactive: no binding seen
B32	inactive: no binding seen
B33	inactive: no binding seen
B34	inactive: no binding seen
B35	inactive: no binding seen
B36	inactive: no binding seen
B37	inactive: no binding seen

At a glance, part of the list above:
Binder	apparent Kd
B28	inactive: no binding seen
B29	inactive: > 291 nM
B30	inactive: no binding seen
B31	inactive: no binding seen
B32	inactive: no binding seen
B33	inactive: no binding seen
